Test results taken from US20210355116A1, “METHODS OF PRODUCING NARONAPRIDE TRIHYDRATE” (Renexxion, LLC, priority 2018, published 2021).
Where a name gives a salt, the structure may show the parent alone. At least one compound was matched to its structure with a doubt left.

Tests used:
Format in all cases: physicochemical
[1] = Bulk stability in very high humidity, one week; conditions: for Physical appearance after 1 week / Purity after 1 week: solid state
Protocol: Bulk Stability in Very High Humidity: The trihydrate form of the dihydrochloride salt was stressed at 25° C. and 97% relative humidity (open), 40° C. and 96% relative humidity (open), and 60° C. and 96% relativity humidity (open) for one week.

[2] = 36-month stability of the trihydrate form at controlled temperature and humidity (HPLC, water content); conditions: 25° C./60% RH
[3] = Stability of the trihydrate form stored in bulk in a GMP storage facility; conditions: room temperature, RH >30%
Protocol: The trihydrate form was evaluated for stability with regard to purity and strength over a time period of up to 11 years, by storing it in a GMP facility under controlled conditions of temperature and relative humidity (temperature=room temperature and relative humidity >30%).

[4] = Dehydration profile by thermographic analysis (TGA)
Protocol: Thermographic analysis (TGA) curves were generated for the anhydrate and trihydrate using a Perkin Elmer TGA-7. Three to five milligram samples were weighed into aluminum sample pans and run under dry nitrogen at 5° C./minute from 25° C. to 250° C. The data were exported to Excel to enable plotting.
The two differ in the appearance of the dehydration mass loss observed for the trihydrate and absent as expected from the anhydrate. Dehydration of the trihydrate started immediately upon start of heating and was complete by approximately 50° C. Complete dehydration below 100° C. is consistent with the assignment of the trihydrate as a channel type hydrate.

[5] = Water vapor sorption isotherm / critical relative humidity; conditions: for Time to re-equilibrium (dehydration or rehydration): 0% RH and 55% RH as humidity drivers
[6] = Bulk stability under stressed conditions, one or two weeks; conditions: for Physical appearance after 1 week / Physical appearance after 2 weeks / Purity after 1 week / Purity after 2 weeks / XRPD after 1 week / XRPD after 2 weeks: solid state
Protocol: Bulk Stability Under Stressed Conditions: About 20-30 mg of the trihydrate form of the dihydrochloride salt was weighed into HPLC vials and stressed at 25° C. and 60% relative humidity (open), 40° C. and 75% relative humidity (open), and 60° C. (closed) for one week and for two weeks.

[7] = 25° C./97% relative humidity (open)
[8] = 40° C./96% relative humidity (open)
[9] = 60° C./96% relative humidity (open)
[10] = 25° C./60% relative humidity open
[11] = 40° C./75% relative humidity open

Question: What does the source list for `COc1cc(N)c(Cl)cc1C(=O)N[C@@H]1CCN(CCCCCC(=O)O[C@H]2CN3CCC2CC3)C[C@@H]1OC` [Compound 1, (3S, 4R, 3′R)-6-[4-(4-amino-5-chloro-2-methoxy-benzoylamino)-3-methoxy-piperidin-1-yl]-hexanoic acid 1-azabicyclo[2.2.2] oct-3′-yl ester di-hydrochloride salt]?
Answer: Physical appearance after 1 week [1, 7]: Agglomerate, white powder; Purity after 1 week [1, 7]: 99.63%; Physical appearance after 1 week [1, 8]: Deliquesced; Purity after 1 week [1, 8]: 99.25%; Physical appearance after 1 week [1, 9]: Deliquesced; Purity after 1 week [1, 9]: 95.42%; Initial purity (time zero) ([1]; time zero): 99.75%; Time stable with regard to both purity and strength [2]: at least 36 months; Purity HPLC (Area %) ([2]; 0 months): 99.8 Area %; Water Content ([2]; 0 months): 8.5%; Purity HPLC (Area %) ([2]; 3 months): 100.2 Area %; Water Content ([2]; 3 months): 8.6%; Purity HPLC (Area %) ([2]; 6 months): 100 Area %; Water Content ([2]; 6 months): 8.6%; Purity HPLC (Area %) ([2]; 9 months): 99.9 Area %; Water Content ([2]; 9 months): 8.4%; Purity HPLC (Area %) ([2]; 12 months): 99.1 Area %; Water Content ([2]; 12 months): 8.4%; Purity HPLC (Area %) ([2]; 18 months): 100 Area %; Water Content ([2]; 18 months): 8.6%; Purity HPLC (Area %) ([2]; 24 months): 99.6 Area %; Water Content ([2]; 24 months): 8.6%; Purity HPLC (Area %) ([2]; 36 months): 99.5 Area %; Water Content ([2]; 36 months): 8.6%; Purity HPLC (Area %) ([3]; year tested 2007): 99.6 Area %; Water Content ([3]; year tested 2007): 8.8%; Purity HPLC (Area %) ([3]; year tested 2018, Drum #1): 99.6 Area %; Water Content ([3]; year tested 2018, Drum #1): 8.4%; Purity HPLC (Area %) ([3]; year tested 2018, Drum #2): 99.6 Area %; Water Content ([3]; year tested 2018, Drum #2): 8.7%; % loss (TGA) ([4]; by 63° C., 5° C./minute from 25° C. under dry nitrogen, corresponds to loss of 3 molecules of water): 8.2%; Temperature by which dehydration was complete (TGA) ([4]; dehydration started immediately upon start of heating): approximately 50 °C; Critical RH [5]: 15-20 % RH; Time to re-equilibrium (dehydration or rehydration) ([5]; 1 mm layer): within minutes; Time to re-equilibrium (dehydration or rehydration) ([5]; 7 mm layer): required hours; Minimum relative humidity required to maintain the trihydrate ([5]; 25° C.): 20 % RH; Minimum relative humidity required to maintain the trihydrate ([5]; 40° C.): 25 % RH; Minimum relative humidity required to maintain the trihydrate ([5]; 50° C.): 30 % RH; Minimum relative humidity required to maintain the trihydrate ([5]; 60° C.): 50 % RH; Behaviour at very high humidity ([5]; 100% RH, temperatures of 40° C. and above): deliquescence was observed; Physical appearance after 1 week [6, 10]: White powder; Physical appearance after 2 weeks [6, 10]: White powder; Purity after 1 week [6, 10]: 99.74%; Purity after 2 weeks [6, 10]: 99.79%; XRPD after 1 week [6, 10]: Trihydrate Form (FIG. 8); XRPD after 2 weeks [6, 10]: Trihydrate Form (FIG. 8); Physical appearance after 1 week [6, 11]: White powder; Physical appearance after 2 weeks [6, 11]: Agglomerate; Purity after 1 week [6, 11]: 99.75%; Purity after 2 weeks [6, 11]: 99.79%; XRPD after 1 week [6, 11]: Trihydrate Form (FIG. 9); XRPD after 2 weeks [6, 11]: Trihydrate Form (FIG. 9); Physical appearance after 1 week ([6]; 60° C. closed): White powder; Physical appearance after 2 weeks ([6]; 60° C. closed): White powder; Purity after 1 week ([6]; 60° C. closed): 99.75%; Purity after 2 weeks ([6]; 60° C. closed): 99.75%; XRPD after 1 week ([6]; 60° C. closed): Trihydrate Form (FIG. 10); XRPD after 2 weeks ([6]; 60° C. closed): Trihydrate Form (FIG. 10); Initial purity (time zero) ([6]; time zero): 99.75%
